Reference: PubChem BioAssay AID1259289 (Sanger Institute, 2017)
Aim: 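Kinases that bowel cancer cells need to survive, with or without BYL719, cetuximab, trametinib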 (primary screen). System: human LS513 colorectal cancer cells. Reagents: siRNA pool against human genes. Challenge: anchor drug BYL719 at 1 µM, cetuximab at 5 µg/ml or trametinib at 10 nM, or DMSO vehicle alone; exposure time not given. Read-out: 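Cell survival as a fraction of the non-targeting pool, replicate means; robust z-score for silencing alone under DMSO; synergy score for each of BYL719, cetuximab and trametinib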. Scale: robust z-score, siRNA alone (DMSO): higher = more viable cells; strongly negative means essential; viability with DMSO vs control: higher = more viable cells. Units: viability with DMSO vs control in fraction of control. Rule for the call: 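a gene counts as active if its DMSO-only robust z-score falls under -3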. Meaning of the calls: active = essential (knock-down alone); inactive = not essential.
The deposit covers 794 reagents; below is an unselected part. 16 of all reagents (2%) were called active. 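Active marks cell loss from silencing alone; drug synergy shows only in the synergy scores, not the calls.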 A number with no mark means an inactive call. The numbers tell different reagents against one gene apart. Viability is capped at 1. Further read-outs or replicates are left out here. Reagent sequences are not shown. Not given: the amount of reagent, the time to read-out.

IPMK (inositol polyphosphate multikinase)
- robust z-score, siRNA alone (DMSO): 0.561
- viability with DMSO vs control: 1

ROR2 (ROR family WNT receptor 2)
- robust z-score, siRNA alone (DMSO): 0.561
- viability with DMSO vs control: 1

TAF1L (TATA-box binding protein associated factor 1 like)
- robust z-score, siRNA alone (DMSO): -0.386
- viability with DMSO vs control: 0.866

PLK2 (polo like kinase 2)
- robust z-score, siRNA alone (DMSO): -0.106
- viability with DMSO vs control: 0.905

ATRX (ATRX chromatin remodeler)
- robust z-score, siRNA alone (DMSO): 0.561
- viability with DMSO vs control: 1

PRP4K (pre-mRNA processing factor kinase PRP4K)
- robust z-score, siRNA alone (DMSO): -0.154
- viability with DMSO vs control: 0.898

ELP1 (elongator acetyltransferase complex subunit 1)
- robust z-score, siRNA alone (DMSO): 0.561
- viability with DMSO vs control: 1

MAP4K2 (mitogen-activated protein kinase kinase kinase kinase 2)
- robust z-score, siRNA alone (DMSO): 0.0193
- viability with DMSO vs control: 0.923

PRKACB (protein kinase cAMP-activated catalytic subunit beta)
- robust z-score, siRNA alone (DMSO): -0.57
- viability with DMSO vs control: 0.84

PRKAG2 (protein kinase AMP-activated non-catalytic subunit gamma 2)
- robust z-score, siRNA alone (DMSO): 0.561
- viability with DMSO vs control: 1

TTBK1 (tau tubulin kinase 1)
- robust z-score, siRNA alone (DMSO): -0.754
- viability with DMSO vs control: 0.813

MAPK8 (mitogen-activated protein kinase 8)
- robust z-score, siRNA alone (DMSO): 0.561
- viability with DMSO vs control: 1

LYN (LYN proto-oncogene, Src family tyrosine kinase)
- robust z-score, siRNA alone (DMSO): 0.561
- viability with DMSO vs control: 1

PIK3R3 (phosphoinositide-3-kinase regulatory subunit 3)
- robust z-score, siRNA alone (DMSO): 0.561
- viability with DMSO vs control: 1

GK2 (glycerol kinase 2)
- robust z-score, siRNA alone (DMSO): -0.364
- viability with DMSO vs control: 0.869

ULK2 (unc-51 like autophagy activating kinase 2)
- robust z-score, siRNA alone (DMSO): 0.561
- viability with DMSO vs control: 1

LIMK2 (LIM domain kinase 2)
- robust z-score, siRNA alone (DMSO): 0.561
- viability with DMSO vs control: 1

WEE1 (WEE1 G2 checkpoint kinase)
- robust z-score, siRNA alone (DMSO): -3.04 (active)
- viability with DMSO vs control: 0.489

ILK (integrin linked kinase) #1
- robust z-score, siRNA alone (DMSO): 0.561
- viability with DMSO vs control: 1

ILK (integrin linked kinase) #2
- robust z-score, siRNA alone (DMSO): -0.497
- viability with DMSO vs control: 0.85

PNKP (polynucleotide kinase 3'-phosphatase)
- robust z-score, siRNA alone (DMSO): -0.312
- viability with DMSO vs control: 0.876

CDKL3 (cyclin dependent kinase like 3)
- robust z-score, siRNA alone (DMSO): 0.561
- viability with DMSO vs control: 1

PIK3C3 (phosphatidylinositol 3-kinase catalytic subunit type 3)
- robust z-score, siRNA alone (DMSO): 0.561
- viability with DMSO vs control: 1

PANK4 (pantothenate kinase 4 (inactive))
- robust z-score, siRNA alone (DMSO): -1.81
- viability with DMSO vs control: 0.663

CAMK2D (calcium/calmodulin dependent protein kinase II delta)
- robust z-score, siRNA alone (DMSO): 0.561
- viability with DMSO vs control: 1

CERK (ceramide kinase)
- robust z-score, siRNA alone (DMSO): 0.561
- viability with DMSO vs control: 1

ACVR1C (activin A receptor type 1C)
- robust z-score, siRNA alone (DMSO): 0.561
- viability with DMSO vs control: 1

ADPGK (ADP dependent glucokinase)
- robust z-score, siRNA alone (DMSO): 0.561
- viability with DMSO vs control: 1

CSNK1E (casein kinase 1 epsilon)
- robust z-score, siRNA alone (DMSO): 0.561
- viability with DMSO vs control: 1

MAP3K15 (mitogen-activated protein kinase kinase kinase 15)
- robust z-score, siRNA alone (DMSO): 0.561
- viability with DMSO vs control: 1

MERTK (MER proto-oncogene, tyrosine kinase)
- robust z-score, siRNA alone (DMSO): 0.521
- viability with DMSO vs control: 0.994

CKB (creatine kinase B)
- robust z-score, siRNA alone (DMSO): 0.561
- viability with DMSO vs control: 1

MYH10 (myosin heavy chain 10)
- robust z-score, siRNA alone (DMSO): 0.454
- viability with DMSO vs control: 0.985

STK38L (serine/threonine kinase 38 like)
- robust z-score, siRNA alone (DMSO): 0.132
- viability with DMSO vs control: 0.939

WT1 (WT1 transcription factor)
- robust z-score, siRNA alone (DMSO): 0.561
- viability with DMSO vs control: 1

PTK2 (protein tyrosine kinase 2)
- robust z-score, siRNA alone (DMSO): 0.0382
- viability with DMSO vs control: 0.926

3 entries from above, sorted by “viability with DMSO vs control”, high to low:
PIK3R3 (phosphoinositide-3-kinase regulatory subunit 3)
- robust z-score, siRNA alone (DMSO): 0.561
- viability with DMSO vs control: 1

ULK2 (unc-51 like autophagy activating kinase 2)
- robust z-score, siRNA alone (DMSO): 0.561
- viability with DMSO vs control: 1

GK2 (glycerol kinase 2)
- robust z-score, siRNA alone (DMSO): -0.364
- viability with DMSO vs control: 0.869
